This experiment concerns the target βarrestin-1 (immunoprecipitated from cells for mass spectrometry) (UniProt P49407). In words: affinity purification with mass spectrometry; βarr1 complexes immunoprecipitated from cells in response to IR, SDS-PAGE, in-gel trypsin digestion, LC-MS/MS.

By UniProt entry, the sequences of proteins in these tests, tags left out.
UniProt P49407: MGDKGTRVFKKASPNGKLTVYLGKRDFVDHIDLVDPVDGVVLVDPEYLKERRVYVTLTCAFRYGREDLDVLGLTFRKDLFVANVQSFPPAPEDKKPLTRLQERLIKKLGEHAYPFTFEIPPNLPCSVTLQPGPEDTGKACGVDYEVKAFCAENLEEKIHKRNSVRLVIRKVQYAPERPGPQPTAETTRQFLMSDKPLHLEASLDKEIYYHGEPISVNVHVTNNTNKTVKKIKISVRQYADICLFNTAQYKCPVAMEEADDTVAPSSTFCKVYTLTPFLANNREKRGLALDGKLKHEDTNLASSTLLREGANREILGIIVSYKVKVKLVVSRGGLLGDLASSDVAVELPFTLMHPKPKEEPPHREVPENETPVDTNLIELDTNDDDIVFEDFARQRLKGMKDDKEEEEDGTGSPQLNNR
UniProt Q9NS91: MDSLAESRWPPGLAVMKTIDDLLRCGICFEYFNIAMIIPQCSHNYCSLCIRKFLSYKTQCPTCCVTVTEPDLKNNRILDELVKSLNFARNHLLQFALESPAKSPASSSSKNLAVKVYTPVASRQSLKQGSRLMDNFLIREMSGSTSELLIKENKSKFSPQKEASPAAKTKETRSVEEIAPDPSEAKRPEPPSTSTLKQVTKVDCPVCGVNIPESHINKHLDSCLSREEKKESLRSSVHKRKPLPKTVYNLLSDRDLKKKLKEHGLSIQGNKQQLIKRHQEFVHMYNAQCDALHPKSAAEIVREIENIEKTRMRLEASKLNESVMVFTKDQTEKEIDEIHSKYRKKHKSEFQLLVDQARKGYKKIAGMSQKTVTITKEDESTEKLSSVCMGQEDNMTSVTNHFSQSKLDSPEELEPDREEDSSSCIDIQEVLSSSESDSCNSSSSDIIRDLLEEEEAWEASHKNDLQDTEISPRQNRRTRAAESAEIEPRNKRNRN

No constants are given. Whether binding was seen depends on the method and setting. In cells and extracts the contact can be indirect. A yes stands for co-enrichment or nearness to the bait. Other partners may have been found.

Turning to “Rad18 (found with βarr1 in cells by mass spectrometry) (from UniProt Q9NS91 1-495)”, the binding entry is recorded as “binds”.

For the origin of these results see PMC7206116.
